Measured values from publication PMC7819943, “Rice protein-binding microarrays: a tool to detect cis-acting elements near promoter regions in rice”.
The other results are listed elsewhere or left out.

Amino acid sequences for entries named in this document (tags omitted).
UniProt Q0JBA9, entry or part of it: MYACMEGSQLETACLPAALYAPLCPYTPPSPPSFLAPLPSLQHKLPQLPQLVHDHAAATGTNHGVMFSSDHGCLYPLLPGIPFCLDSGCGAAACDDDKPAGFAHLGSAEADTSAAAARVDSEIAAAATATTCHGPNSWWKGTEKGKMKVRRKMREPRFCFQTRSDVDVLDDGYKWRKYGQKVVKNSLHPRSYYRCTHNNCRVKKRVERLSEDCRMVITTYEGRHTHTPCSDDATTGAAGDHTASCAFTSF

Biological target: OsWRKY34 (Oryza sativa, UniProt Q0JBA9 1-250)
Test: protein-binding microarray (RPBM); PBS, 2% BSA, 51.3 ng/ul salmon testes DNA, 50 uM zinc acetate, 200 nM TF, 25 C, 1 h; high values mean tight binding
Conditions: protein: recombinant; tags: N-terminal polyhistidine and DsRed monomer fusion (pET32a); label: CyDye5-dUTP incorporated in the synthesized complementary strand; 3' TTTTT single-stranded linker to array surface; dsDNA, one strand shown
Outline: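 The binding signal is fluorescence intensity per feature, in arbitrary units, read on an Axon 4000B scanner. Polyhistidine- and DsRed-tagged transcription factors (N-terminal fusions) from E. coli BL21-CodonPlus were purified on Ni–NTA and applied at 200 nM for 1 h at 25 °C to a double-stranded, BSA-blocked custom Agilent array in buffer with 50 µM zinc acetate.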

| Sequence | binding signal |
| --- | --- |
| ATAAATTATTCACTGTTGACACTTAAGGATTTGACTTTACCGGAGTCACCTAGTGCAG | 8610 fluorescence intensity (a.u.) |
| TACTATTCTCCTAATTAGTACTCCATCCGTCCTAAAATATCGGAGTCACCTAGTGCAG | 10300 fluorescence intensity (a.u.) |
| ACACACACAACTTTTCAGTCGCATCATCTCCAATTTCAACCGGAGTCACCTAGTGCAG | 9260 fluorescence intensity (a.u.) |
| GATTTGTGTTTTTTTATGTAAGTCTACTTCTACACCCAATCGGAGTCACCTAGTGCAG | 8510 fluorescence intensity (a.u.) |
| CTCGCTTCGCTTCTTCTCCTCTCTCTCTCTCTATCTTCACCGGAGTCACCTAGTGCAG | 9060 fluorescence intensity (a.u.) |
| GGCGTCGATCTGGAGGCGGTCGGCGGGGAGGGGCGCCGGCCGGAGTCACCTAGTGCAG | 14900 fluorescence intensity (a.u.) |
| TGTAACATGAGGATGTGTTATACCCAGTTTTGCAATTGAGCGGAGTCACCTAGTGCAG | 8130 fluorescence intensity (a.u.) |
| CATCTTTTTTTTTAAGGGTTAGTGTAGGTCGTCATGACAGCGGAGTCACCTAGTGCAG | 8060 fluorescence intensity (a.u.) |
| ATCTTCCCTTACAGTGACATCCTTTGTTCTTGCCGTCTCTCGGAGTCACCTAGTGCAG | 17600 fluorescence intensity (a.u.) |
| AGTGTGCTTATACTACCTCATTGTATTATGTTTGCTCTTACGGAGTCACCTAGTGCAG | 10000 fluorescence intensity (a.u.) |
| GTGTGTGTTGCGTGGTGGGGAGGAAGATCTCGAGCGGTTGCGGAGTCACCTAGTGCAG | 9590 fluorescence intensity (a.u.) |
| GTCCCGGTCCACGACGCATCCACCCATTTAAACCCCACCTCGGAGTCACCTAGTGCAG | 9450 fluorescence intensity (a.u.) |
| AGAAGGTGTCGGGGTGGCGGGGTAGACAGGCGCTAGTGCTCGGAGTCACCTAGTGCAG | 8450 fluorescence intensity (a.u.) |
| AGGTTGATCTACTCTTGTCCAGTCATTTCTGCAGTTTGCCCGGAGTCACCTAGTGCAG | 8400 fluorescence intensity (a.u.) |
| CAGGGGTGTGTTTGAGTAGAAGGAGATCGGGGAGATTGGACGGAGTCACCTAGTGCAG | 9230 fluorescence intensity (a.u.) |
| CGCTTCTCTCTCTCTCTCTCTCCTCGCGCCGCCGCCGCCACGGAGTCACCTAGTGCAG | 9010 fluorescence intensity (a.u.) |
| CCTACATACTCAAATGGTTGTTCTTGTTTTTTTTTTCTCTCGGAGTCACCTAGTGCAG | 10800 fluorescence intensity (a.u.) |
| TCCATCATTAGCAAATGTTTATCGTAGCATCACATTGTCACGGAGTCACCTAGTGCAG | 8520 fluorescence intensity (a.u.) |
| ACCCTCGCCACCGTCCCCGCCTCCGTCGACAGCAGCCCGCCGGAGTCACCTAGTGCAG | 12100 fluorescence intensity (a.u.) |
| ATATTTGCATGGCAAAAATTTCCATATCATTGTTTCTTGTCGGAGTCACCTAGTGCAG | 8270 fluorescence intensity (a.u.) |
| TTTTTCTTTTTCTTTTTATTACTTATTAATTTGGTAATTTCGGAGTCACCTAGTGCAG | 9180 fluorescence intensity (a.u.) |

| Sequence | binding signal |
| --- | --- |
| ATGACCTTTCTGTTTTCAAGCTAGCTGCCTGGACCACCGACGGAGTCACCTAGTGCAG | 9410 fluorescence intensity (a.u.) |
| ACCCCTACCATGCCACTCTCCAGCCATGAATACCTTGGTACGGAGTCACCTAGTGCAG | 8640 fluorescence intensity (a.u.) |
| GTTGACTTTTTTTTAAACATGTTTGACCATTCATCTTATTCGGAGTCACCTAGTGCAG | 11100 fluorescence intensity (a.u.) |
| CTATTCGCAGTGAAATTTGTTATTTTCGCTTCTACTTATACGGAGTCACCTAGTGCAG | 8550 fluorescence intensity (a.u.) |
| TATTGAGTGCATATGGAATGGGCCTTGCTGATGTTATTGACGGAGTCACCTAGTGCAG | 8570 fluorescence intensity (a.u.) |
| TCTATTTTTTTTACTGCCATATACCCGGTCCCACTAACTTCGGAGTCACCTAGTGCAG | 10200 fluorescence intensity (a.u.) |
| TGTTTGGTTGGGATACATGGGAATTTTGGTAGGATGGGGACGGAGTCACCTAGTGCAG | 12700 fluorescence intensity (a.u.) |
| TATTTTCTTGCTCTATTTTTCTCAATCCTGCATTCAATCCCGGAGTCACCTAGTGCAG | 9840 fluorescence intensity (a.u.) |
| ACGCGGGTGGGCTGGACGCCGAGCTGGTCGGGGAGGCACTCGGAGTCACCTAGTGCAG | 8670 fluorescence intensity (a.u.) |
| CCATTCTAGCATTTCATTTTTTTTATCAAATTACTTATATCGGAGTCACCTAGTGCAG | 9160 fluorescence intensity (a.u.) |
| CATTGCGGTTACTCTTATCTCTCCACGGATCCGCGCTCAGCGGAGTCACCTAGTGCAG | 8510 fluorescence intensity (a.u.) |
| CTCATGTTGTTTGACGGTTTGACTCTCCTAGTTTATCATCCGGAGTCACCTAGTGCAG | 9960 fluorescence intensity (a.u.) |
| TCACCACTATCATTTAACCGGACTTTACTTTAATTAGATTCGGAGTCACCTAGTGCAG | 12600 fluorescence intensity (a.u.) |
| CGCTCTGTTTTACGTGTATAAAGGCCATCCATTTGAGTTACGGAGTCACCTAGTGCAG | 9180 fluorescence intensity (a.u.) |
| TATTTTTCCGGATCAAATTGACATATAAGCGCCACGTCAACGGAGTCACCTAGTGCAG | 8550 fluorescence intensity (a.u.) |
| TACCGTTCCAGCCCAACATAATATAGGCCCGCTCTTCGGTCGGAGTCACCTAGTGCAG | 8060 fluorescence intensity (a.u.) |
| CCGACGCTTCATATAGTTGCCTCGTCGGCGTGCACGATCCCGGAGTCACCTAGTGCAG | 10400 fluorescence intensity (a.u.) |
| AACATCGACACGGTCTCTAAAATACAACTTTGACTTCTTTCGGAGTCACCTAGTGCAG | 9920 fluorescence intensity (a.u.) |
| CTGGCTTCCACTTTGGTTTCTACAGATCTATCTATATCTCCGGAGTCACCTAGTGCAG | 10600 fluorescence intensity (a.u.) |
| TGCACCTGATATTCCAAGATTTAGTTACTGCACACAATATCGGAGTCACCTAGTGCAG | 8460 fluorescence intensity (a.u.) |
| ACCACCACCACCGTCTCCATCCTTCCGGCCGGCCACAGTCCGGAGTCACCTAGTGCAG | 9180 fluorescence intensity (a.u.) |

Laid out differently: results already given
Sequence | binding signal
TGTTTGGTTGGGATACATGGGAATTTTGGTAGGATGGGGACGGAGTCACCTAGTGCAG | 12700 fluorescence intensity (a.u.)
TATTTTCTTGCTCTATTTTTCTCAATCCTGCATTCAATCCCGGAGTCACCTAGTGCAG | 9840 fluorescence intensity (a.u.)
ACGCGGGTGGGCTGGACGCCGAGCTGGTCGGGGAGGCACTCGGAGTCACCTAGTGCAG | 8670 fluorescence intensity (a.u.)
CCATTCTAGCATTTCATTTTTTTTATCAAATTACTTATATCGGAGTCACCTAGTGCAG | 9160 fluorescence intensity (a.u.)
CATTGCGGTTACTCTTATCTCTCCACGGATCCGCGCTCAGCGGAGTCACCTAGTGCAG | 8510 fluorescence intensity (a.u.)
CTCATGTTGTTTGACGGTTTGACTCTCCTAGTTTATCATCCGGAGTCACCTAGTGCAG | 9960 fluorescence intensity (a.u.)
TCACCACTATCATTTAACCGGACTTTACTTTAATTAGATTCGGAGTCACCTAGTGCAG | 12600 fluorescence intensity (a.u.)
CGCTCTGTTTTACGTGTATAAAGGCCATCCATTTGAGTTACGGAGTCACCTAGTGCAG | 9180 fluorescence intensity (a.u.)
TATTTTTCCGGATCAAATTGACATATAAGCGCCACGTCAACGGAGTCACCTAGTGCAG | 8550 fluorescence intensity (a.u.)
TACCGTTCCAGCCCAACATAATATAGGCCCGCTCTTCGGTCGGAGTCACCTAGTGCAG | 8060 fluorescence intensity (a.u.)
CCGACGCTTCATATAGTTGCCTCGTCGGCGTGCACGATCCCGGAGTCACCTAGTGCAG | 10400 fluorescence intensity (a.u.)
AACATCGACACGGTCTCTAAAATACAACTTTGACTTCTTTCGGAGTCACCTAGTGCAG | 9920 fluorescence intensity (a.u.)
